# In article PMC7819943, “Rice protein-binding microarrays: a tool to detect cis-acting elements near promoter regions in rice”:
# By UniProt entry, the sequences of proteins in these tests, tags left out.
# UniProt Q0JBA9, entry or part of it: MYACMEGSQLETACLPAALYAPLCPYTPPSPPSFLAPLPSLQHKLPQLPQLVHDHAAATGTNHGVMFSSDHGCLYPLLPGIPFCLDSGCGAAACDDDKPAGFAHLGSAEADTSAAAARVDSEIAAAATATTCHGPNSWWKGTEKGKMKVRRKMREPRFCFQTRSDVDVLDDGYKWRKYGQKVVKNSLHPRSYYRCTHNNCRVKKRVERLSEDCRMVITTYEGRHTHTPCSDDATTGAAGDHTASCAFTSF
# Some of the results follow.
# Molecular target: OsWRKY34 (Oryza sativa, UniProt Q0JBA9 1-250)
# Assay: protein-binding microarray (RPBM); PBS, 2% BSA, 51.3 ng/ul salmon testes DNA, 50 uM zinc acetate, 200 nM TF, 25 C, 1 h; high values mean tight binding
# Details: protein: recombinant; tags: N-terminal polyhistidine and DsRed monomer fusion (pET32a); label: CyDye5-dUTP incorporated in the synthesized complementary strand; 3' TTTTT single-stranded linker to array surface; dsDNA, one strand shown
# How it was run: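 For the binding signal, per-feature fluorescence intensity was read in arbitrary units on an Axon 4000B scanner. Before scanning, a 2% BSA-blocked custom Agilent array made double-stranded with Cy5-dUTP was washed after 1 h at 25 °C with 200 nM protein and 50 µM zinc acetate. The proteins were Ni–NTA-purified transcription factors with N-terminal polyhistidine and DsRed fusions, expressed in E. coli BL21-CodonPlus.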
row,Sequence,binding signal
1,ACTTTTTCCATCACATCAACCTGTCATACACAACTTTTCACGGAGTCACCTAGTGCAG,12100 fluorescence intensity (a.u.)
2,GCACAGTTCACATTCAGTTGCACCTCGAGCTCTATAAATGCGGAGTCACCTAGTGCAG,10500 fluorescence intensity (a.u.)
3,CGATCGTCTCCTCCTTGCCCTTCTTGCACCGCGCGCTATACGGAGTCACCTAGTGCAG,8360 fluorescence intensity (a.u.)
4,ATGCCTGATGGCCTCACACCGCCGCATCTTCTCGTTCTTCCGGAGTCACCTAGTGCAG,8280 fluorescence intensity (a.u.)
5,ATTCTCGTACACGAAAAGTCTTTTCAGCTGTCGCTTCATACGGAGTCACCTAGTGCAG,9330 fluorescence intensity (a.u.)
6,CCTCCGTCCCTAAATATTCGACGCCGTTGACTTTTTTAAACGGAGTCACCTAGTGCAG,21700 fluorescence intensity (a.u.)
7,GGGAGGAAAAAGGAAAAGTGGTTTAGGGTTTTGTGGATTTCGGAGTCACCTAGTGCAG,9820 fluorescence intensity (a.u.)
8,AGACCAATCCGCATCCGCTTTTCTCTACATTGTAACTCGCCGGAGTCACCTAGTGCAG,9770 fluorescence intensity (a.u.)
9,TGTGATTTTTCTGTTTCTGCTACATTATATTATAACCATTCGGAGTCACCTAGTGCAG,9400 fluorescence intensity (a.u.)
10,CTAACTTTTCCTTGTTTTCCACGTCTTTGGGAAGGGAGATCGGAGTCACCTAGTGCAG,9710 fluorescence intensity (a.u.)
11,AGCATTATCTCCTCATCATTCATCATCTCACTCAAATTCACGGAGTCACCTAGTGCAG,9830 fluorescence intensity (a.u.)
12,CGATGCAATATTGACCCATTTTTTCCCTGTTTCATTGACGCGGAGTCACCTAGTGCAG,10700 fluorescence intensity (a.u.)
13,CGCCGTTGTCTCCTTCCCGTCACACCCTCCTCGCCGCGACCGGAGTCACCTAGTGCAG,8500 fluorescence intensity (a.u.)
14,CAACTTTTCCATCACATCGTTCATATTTCAACCAAACTTCCGGAGTCACCTAGTGCAG,8810 fluorescence intensity (a.u.)
15,GTTTATATTTAATACTCTATATATATATGTCTAAGGCCTTCGGAGTCACCTAGTGCAG,8260 fluorescence intensity (a.u.)
16,CCTTCTTTACATACAAACAGAGCTCCATCTTTCTCTCTCTCGGAGTCACCTAGTGCAG,8280 fluorescence intensity (a.u.)
17,GGTTTTTTTTGGATTTATTGCTTTGTCACGTCTGGATCGTCGGAGTCACCTAGTGCAG,20500 fluorescence intensity (a.u.)
18,CGCCAGACGACCACTAAGCCCGCCTGCACGCTGCCATCGCCGGAGTCACCTAGTGCAG,8470 fluorescence intensity (a.u.)
19,AGGTGCAGGGTTGTTTTCTGGGTCCGACAACATAAGGGGCCGGAGTCACCTAGTGCAG,8310 fluorescence intensity (a.u.)
20,TTTGGACACCTATATGGGCGGGCGGGTGTATGTACAGTACCGGAGTCACCTAGTGCAG,14700 fluorescence intensity (a.u.)
21,CTATATTTTGGGATATTTTGGGATGGATATAGTATATAAGCGGAGTCACCTAGTGCAG,9200 fluorescence intensity (a.u.)
22,ATCACTAGATCGCGATTTCGCTCCTTTCTTCAGGTCCCTCCGGAGTCACCTAGTGCAG,9140 fluorescence intensity (a.u.)
23,CTGACGAGTTATTATTAACCCACCCACCCGGAAGCCACTGCGGAGTCACCTAGTGCAG,8070 fluorescence intensity (a.u.)
24,CGTTGTGTTGGTATGTGGTCTTCCTCCTCGTGTCTGTCGCCGGAGTCACCTAGTGCAG,9950 fluorescence intensity (a.u.)
25,CTCTCTGCTCAGCGTTGCGGGGCTTTGGATTTTTTTTTCTCGGAGTCACCTAGTGCAG,8140 fluorescence intensity (a.u.)
26,CGTGGGTGGAGGGATCGGCGCCGACGTGTGGTGCGCGCCTCGGAGTCACCTAGTGCAG,10200 fluorescence intensity (a.u.)
27,TTTATTTTGTCGACATCGTTTAACTTGGTGTTTTTTCCCCCGGAGTCACCTAGTGCAG,12000 fluorescence intensity (a.u.)

row,Sequence,binding signal
1,TTCGATCGATCCATGCAACAACATCCTGATTTGTTTTTCTCGGAGTCACCTAGTGCAG,8490 fluorescence intensity (a.u.)
2,CTCTCCCTCTCGCTTTCTACATCCATCCCGCACTGTAACACGGAGTCACCTAGTGCAG,8660 fluorescence intensity (a.u.)
3,GGGTGAAGTGTGGGCGGTCGGAGATCTCGATGCCGCTGGGCGGAGTCACCTAGTGCAG,8030 fluorescence intensity (a.u.)
4,TGACCAATCGCCAGTGCTCACACCCACTCTCCTAGCCTAGCGGAGTCACCTAGTGCAG,8140 fluorescence intensity (a.u.)
5,CGGGTCTTGCAATCCACTTCTTCTTCTTTTTTTTCTTTTTCGGAGTCACCTAGTGCAG,8630 fluorescence intensity (a.u.)
6,CAGCCAACGACCCAACTCCATCGTCCTCCTCGTCGTCCGCCGGAGTCACCTAGTGCAG,8510 fluorescence intensity (a.u.)
7,TCCCCGCTCTCGCCTCCTCCATCCCATCGCGCCACGCGAGCGGAGTCACCTAGTGCAG,9290 fluorescence intensity (a.u.)
8,GCAGTGTGAACACATCTAACTTCTATTGTACTGGACAAATCGGAGTCACCTAGTGCAG,8050 fluorescence intensity (a.u.)
9,CGCGGCTTATGTATTCTAGTGGATTTTGCTCCTAGCCTACCGGAGTCACCTAGTGCAG,10000 fluorescence intensity (a.u.)
10,ACTACGAAATCTATGGCAGTTTTCCCAATTTTTCACCCAACGGAGTCACCTAGTGCAG,8490 fluorescence intensity (a.u.)
11,AATTGGGAAAATTGGAACCGTGCCACTCCATCATGTTTTCCGGAGTCACCTAGTGCAG,8210 fluorescence intensity (a.u.)
12,CCTGCCGCCCTGTGTGATCCTACGAACCGACCGAATTAACCGGAGTCACCTAGTGCAG,10800 fluorescence intensity (a.u.)
13,TTAGTTTGTTTATCTTTTTTAAGAACTTATGTACTTTATTCGGAGTCACCTAGTGCAG,8520 fluorescence intensity (a.u.)
14,CTTCAGTTATGTTAATTACATGTCATTTGTTTTGTTACAACGGAGTCACCTAGTGCAG,8130 fluorescence intensity (a.u.)
15,GCGCTTATGTGTACTAGTTTGGTTGTGCATGCACACTAATCGGAGTCACCTAGTGCAG,9720 fluorescence intensity (a.u.)
16,TCGCCGCCCCTTATCCGGTCAGCGCACCGCTCGCAACAACCGGAGTCACCTAGTGCAG,8470 fluorescence intensity (a.u.)
17,ACGTCCGCAAAACCACCCATATATACTGCCATAGGACCCTCGGAGTCACCTAGTGCAG,8020 fluorescence intensity (a.u.)
18,CAGTGGGTGTATTTGGTCCGCCTTGTGCTGTCGTCGTCGACGGAGTCACCTAGTGCAG,8080 fluorescence intensity (a.u.)
19,CCAAGGCTGTGTATTAATTAGCAACATTTTTTTTTCTTCTCGGAGTCACCTAGTGCAG,8370 fluorescence intensity (a.u.)
20,TTGGTTTGGTTCAGGTGAGAGAGGTCAACAATAGCTGTTGCGGAGTCACCTAGTGCAG,8040 fluorescence intensity (a.u.)
21,GATCCAAACGCGAGGTTTTCGGACAGCTGTCGTCACTCCTCGGAGTCACCTAGTGCAG,8520 fluorescence intensity (a.u.)
22,TGATGCTCTGATGACCTCCTGGCTAGCTTCTACACACACTCGGAGTCACCTAGTGCAG,8450 fluorescence intensity (a.u.)
23,CACCACTCACGCTGTTGGCACAATCTCCTCCGGCGTTGTCCGGAGTCACCTAGTGCAG,8970 fluorescence intensity (a.u.)
24,TTGCAGCTTGTACACGCAACATCTAGTTGTATTGTTGGGTCGGAGTCACCTAGTGCAG,9090 fluorescence intensity (a.u.)
25,GTCGTTTCTCTCTACCACGTGTACAGCAGCAGGTCAGCTGCGGAGTCACCTAGTGCAG,8330 fluorescence intensity (a.u.)
26,TATTGTACCCCAATTTACAAATGTCCCGCATTTCTATTAACGGAGTCACCTAGTGCAG,8620 fluorescence intensity (a.u.)
27,ATTCTTCACTACAATTTTACATTTTGCCTCTGTATTGGTACGGAGTCACCTAGTGCAG,9020 fluorescence intensity (a.u.)

# Quoted from the entries so far (4 entries):
row,Sequence,binding signal
20,TTGGTTTGGTTCAGGTGAGAGAGGTCAACAATAGCTGTTGCGGAGTCACCTAGTGCAG,8040 fluorescence intensity (a.u.)
21,GATCCAAACGCGAGGTTTTCGGACAGCTGTCGTCACTCCTCGGAGTCACCTAGTGCAG,8520 fluorescence intensity (a.u.)
22,TGATGCTCTGATGACCTCCTGGCTAGCTTCTACACACACTCGGAGTCACCTAGTGCAG,8450 fluorescence intensity (a.u.)
23,CACCACTCACGCTGTTGGCACAATCTCCTCCGGCGTTGTCCGGAGTCACCTAGTGCAG,8970 fluorescence intensity (a.u.)
